# Experimental data from PMC12431657, “Discovery and mechanistic insights of dibenzoylmethane as a broad spectrum inhibitor of coronavirus” (PLOS Pathogens, 2025).
# Like-named read-outs stand apart in the source and are kept apart here. Screen size: about 3,300 compounds; about 95 (3%) showed an effect of 50% or more. The list shows a part of the results.
# Tested on: HCoV-229E
# Parameters: species or system Huh-7; HTS, protection from HCoV-229E induced cell death, luminescent cell viability (CellCounting-Lite 2.0), inhibition rate
# Settings: 24 h post infection, 1 h compound pre-incubation, 10 µM, inhibitor
SMILES,"229E Inhibition rate (229E Inhibition rate, 24 h) [%]",229E Inhibition rate [%]
CC(C)[C@@H]1CC[C@@H](C)C[C@H]1O [Menthol],33.4,–
COc1cc(/C=C/C(=O)O[C@H]2[C@H](O)[C@@H](CO)O[C@@]2(CO)O[C@H]2O[C@H](COC(=O)c3ccc(O)cc3)[C@@H](O)[C@H](O)[C@H]2O)cc(OC)c1OC [Tenuifoliside A],–,0
CC1(C)CCC2(CO)C(=C3C=CC4C5(C)CCC(OC6OC(COC7OC(CO)C(O)C(O)C7O)C(OC7OC(CO)C(O)C(O)C7O)C(O)C6O)CC5C(C)(CO)CC4(C)C3(C)CC2O)C1 (centres unmarked) [Clinodiside A],–,8.8
C[C@H](CO[C@@H]1O[C@H](CO)[C@@H](O)[C@H](O)[C@H]1O)[C@H]1CC[C@@]2(CC[C@]3(C)[C@H](CC[C@@H]4[C@@]5(C)CC[C@H](O[C@@H]6O[C@H](CO)[C@@H](O)[C@H](O)[C@H]6O[C@@H]6O[C@H](CO)[C@@H](O)[C@H](O)[C@H]6O)[C@@](C)(CO)[C@@H]5CC[C@]43C)[C@H]2O)CO1 [Hosenkoside B],–,10.3
CC(=O)O[C@@H]1C[C@H](O)[C@@]23CO[C@@H](O)[C@]1(C)[C@@H]2C[C@@H](O)[C@]1(C)[C@@H]3C(=O)[C@H](OC(C)=O)[C@@]2(C)[C@H](c3ccoc3)C[C@H]3O[C@]321 [Toosendanin],–,23.4
O=C(O)c1cc(O)c2c(c1)C(=O)c1cccc(O[C@@H]3O[C@H](CO)[C@@H](O)[C@H](O)[C@H]3O)c1C2=O [Rhein 8-Glucoside],–,17.4
CC[C@H]1OC(=O)C[C@@H](O)[C@H](C)[C@@H](O[C@@H]2O[C@H](C)[C@@H](O[C@H]3C[C@@](C)(O)[C@@H](O)[C@H](C)O3)[C@H](N(C)C)[C@H]2O)[C@@H](CC=O)C[C@@H](C)C(=O)/C=C/C(C)=C/[C@@H]1CO[C@@H]1O[C@H](C)[C@@H](O)[C@@H](OC)[C@H]1OC [Tylosin (phosphate)],32.6,–
O=C(O)c1cccnc1 [Niacin],–,7.8
CC1(C)CC[C@]2(C(=O)O)CC[C@]3(C)C(=CC[C@@H]4[C@@]5(C)CC[C@H](O[C@@H]6O[C@H](C(=O)O)[C@@H](O)[C@H](O)[C@H]6O[C@@H]6O[C@H](CO)[C@@H](O)[C@H](O)[C@H]6O)C(C)(C)[C@@H]5CC[C@]43C)[C@@H]2C1 [Zingibroside R1],–,14.8
NCCc1c[nH]cn1 [Histamine],11,–
"COc1cc(OC)c2c(=O)cc(-c3ccc(O)c(O)c3)oc2c1 [5,7-Dimethoxyluteolin]",–,12.3

# Some of these compounds in order of length of the SMILES, low to high:
SMILES,"229E Inhibition rate (229E Inhibition rate, 24 h) [%]",229E Inhibition rate [%]
NCCc1c[nH]cn1 [Histamine],11,–
CC(C)[C@@H]1CC[C@@H](C)C[C@H]1O [Menthol],33.4,–
CC1(C)CCC2(CO)C(=C3C=CC4C5(C)CCC(OC6OC(COC7OC(CO)C(O)C(O)C7O)C(OC7OC(CO)C(O)C(O)C7O)C(O)C6O)CC5C(C)(CO)CC4(C)C3(C)CC2O)C1 (centres unmarked) [Clinodiside A],–,8.8
